The values below come from article PMC8892947.

Residue numbers refer to the chain shown, from its start. For some of these results: At least one verdict was read from the data and is not stated in words by the source. Tags and fusion partners may be left off the protein sequences shown.

Series [1] has as its target T1, CL11 (uL11 C-terminal RNA-binding domain, wild type) (Bacillus stearothermophilus) (UniProt P56210).
T1 sequence (looked up, limits assumed): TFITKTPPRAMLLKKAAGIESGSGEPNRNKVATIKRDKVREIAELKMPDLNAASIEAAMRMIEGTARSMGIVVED
The experiment in a line: native IM-MS. As to conditions: 9+ complex 3100 m/z, CCS 2100 A2; Buffer R: 30 mM Tris pH 7.9, 20 mM MgCl2, 175 mM KCl; recombinant protein; protein details: N-terminal MHHHHHH.

Series [2] concerns the target T2, CL11-M N85G,N87L,M105R,N109S,M117I,M119T,M127V (Bacillus stearothermophilus (mRNA display variant)) (UniProt P56210).
T2 sequence (looked up, limits assumed): T1 sequence (looked up, limits assumed) with M11V, N27G, N29L, M47R, N51S, M59I, M61T, M69V
In words: native IM-MS. The settings on record: 9+ complex 3084 m/z, CCS 2080 and 1920 A2; Buffer R: 30 mM Tris pH 7.9, 20 mM MgCl2, 175 mM KCl; recombinant protein; protein details: N-terminal MHHHHHH.

The target of series [3] is T2, CL11-M N85G,N87L,M105R,N109S,M117I,M119T,M127V (Bacillus stearothermophilus (mRNA display variant)). The experiment in a line: Lon protease protection. The settings on record: Buffer R: 30 mM Tris pH 7.9, 20 mM MgCl2, 175 mM KCl; recombinant protein; protein details: N-terminal MHHHHHH.
Series [4] has as its target T1, CL11 (uL11 C-terminal RNA-binding domain, wild type) (Bacillus stearothermophilus). The experiment in a line: SPR. The settings on record: kon 1.2e4 1/Ms, koff 3.0e-4 1/s, 20 mM Mg2+, 175 mM K+; Buffer R: 30 mM Tris pH 7.9, 20 mM MgCl2, 175 mM KCl; SPR in buffer R + 0.1% Triton X-100; recombinant protein; protein details: N-terminal MHHHHHH; label: 5' biotin-TEG.
Series [5] addresses T2, CL11-M N85G,N87L,M105R,N109S,M117I,M119T,M127V (Bacillus stearothermophilus (mRNA display variant)). The experiment in a line: SPR. The settings on record: kon 1.9e4 1/Ms, koff 4.5e-4 1/s, 20 mM Mg2+, 175 mM K+; Buffer R: 30 mM Tris pH 7.9, 20 mM MgCl2, 175 mM KCl; SPR in buffer R + 0.1% Triton X-100; recombinant protein; protein details: N-terminal MHHHHHH; label: 5' biotin-TEG.

The target of series [6] is T1, CL11 (uL11 C-terminal RNA-binding domain, wild type) (Bacillus stearothermophilus). In words: pull-down. The settings on record: without Mg2+ and K+, stability unchanged; Buffer R: 30 mM Tris pH 7.9, 20 mM MgCl2, 175 mM KCl; recombinant protein; protein details: N-terminal MHHHHHH; label: 5' biotin-TEG.
Series [7] addresses T2, CL11-M N85G,N87L,M105R,N109S,M117I,M119T,M127V (Bacillus stearothermophilus (mRNA display variant)). In words: pull-down. The settings on record: without Mg2+ and K+, stability unchanged; Buffer R: 30 mM Tris pH 7.9, 20 mM MgCl2, 175 mM KCl; recombinant protein; protein details: N-terminal MHHHHHH; label: 5' biotin-TEG.
Series [8] addresses T1, CL11 (uL11 C-terminal RNA-binding domain, wild type) (Bacillus stearothermophilus). The experiment in a line: RNase A protection. As to conditions: Buffer R: 30 mM Tris pH 7.9, 20 mM MgCl2, 175 mM KCl, recombinant protein, protein details: N-terminal MHHHHHH, label: 5' fluorescein-Spacer9.
Series [9] deals with T2, CL11-M N85G,N87L,M105R,N109S,M117I,M119T,M127V (Bacillus stearothermophilus (mRNA display variant)). In words: RNase A protection. As to conditions: Buffer R: 30 mM Tris pH 7.9, 20 mM MgCl2, 175 mM KCl, recombinant protein, protein details: N-terminal MHHHHHH, label: 5' fluorescein-Spacer9.
For series [10], the target named is T1, CL11 (uL11 C-terminal RNA-binding domain, wild type) (Bacillus stearothermophilus). In words: EMSA. As to conditions: 2 uM each, 1:1; Buffer R: 30 mM Tris pH 7.9, 20 mM MgCl2, 175 mM KCl; EMSA 1 h at room temperature; recombinant protein; protein details: N-terminal MHHHHHH; label: 5' fluorescein-Spacer9.
Series [11] concerns the target T2, CL11-M N85G,N87L,M105R,N109S,M117I,M119T,M127V (Bacillus stearothermophilus (mRNA display variant)). The experiment in a line: EMSA. The settings on record: 2 uM each, 1:1; Buffer R: 30 mM Tris pH 7.9, 20 mM MgCl2, 175 mM KCl; EMSA 1 h at room temperature; recombinant protein; protein details: N-terminal MHHHHHH; label: 5' fluorescein-Spacer9.

In the case of “GCCAGGAUGUAGGCUUAGAAGCAGCCAUCAUUUAAAGAAAGCGUAAUAGCUCACUGGU [58rRNA (label not stated)]”, the binding result in series [1], in series [2] and in series [3] was “binds” throughout.

Consider “GCCAGGAUGUAGGCUUAGAAGCAGCCAUCAUUUAAAGAAAGCGUAAUAGCUCACUGGU [biotinylated 58rRNA]”, for which the Kd in [4] is 25 nM; in series [5], 24 nM. The binding result in [6] and in [7] was “binds” each time.

For “GCCAGGAUGUAGGCUUAGAAGCAGCCAUCAUUUAAAGAAAGCGUAAUAGCUCACUGGU [f58rRNA]”, the binding result in series [8] (20 mM EDTA, buffer R, 30 C) is “binds”; in [8] (Lon buffer, 37 C) it was “binds”; in [9] (20 mM EDTA, buffer R, 30 C), “binds”; in series [9] (Lon buffer, 37 C) it was “binds”; in [10] it was “binds”; in series [11] it was “binds”.
